# From the supplement of paper PMC8728848
# The other results are listed elsewhere or left out.
# B1: Clec18A (Homo sapiens) (protein)
# chain: PFHTCDLRIDGDCFMVSSEADTYYRARMKCQRKGGVLAQIKRQKVQDILAFYLGRLETTNEVIDSDFETRNFWIGLTYKTAKDSFRWATGEHQAFTSFAFGQPDNHGFGNCVELQASAAFNWNDQRCKTRNRYICQ
# What was measured:
# Test in all cases: glycan array binding signal (z-score within array); higher = stronger binding
# Details in all cases: glycan notation: IUPAC condensed, linker removed
# [1] = target: GlcNAc(b1-2)Gal(b1-3)GalNAc
# Outline: (§1)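 Glycan array binding is given as a within-array Z-score, which can be read as non-binding when negative. The arrays, 3228 of them, came from the Consortium for Functional Glycomics database and were retained only where the protein sequence was available. Z-scores were averaged across arrays of the same protein sequence at different concentrations or buffers and across linkers.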
# [2] = target: GlcNAc(b1-2)Man(a1-3)[GlcNAc(b1-2)Man(a1-6)]Man(b1-4)GlcNAc(b1-4)GlcNAc
# Outline: as §1
# [3] = target: GlcNAc(b1-2)Man(a1-3)[GlcNAc(b1-2)Man(a1-6)]Man(b1-4)GlcNAc(b1-4)[Fuc(a1-6)]GlcNAc
# Outline: as §1
# [4] = target: GlcNAc(b1-2)Man(a1-3)[GlcNAc(b1-4)][GlcNAc(b1-2)Man(a1-6)]Man(b1-4)GlcNAc(b1-4)GlcNAc
# Outline: as §1
# [5] = target: GlcNAc(b1-2)Man(a1-3)[GlcNAc(b1-4)][GlcNAc(b1-2)Man(a1-6)]Man(b1-4)GlcNAc(b1-4)[Fuc(a1-6)]GlcNAc
# Outline: as §1
# [6] = target: GlcNAc(b1-2)[GlcNAc(b1-4)]Man(a1-3)[GlcNAc(b1-2)Man(a1-6)]Man(b1-4)GlcNAc(b1-4)GlcNAc
# Outline: as §1
# [7] = target: GlcNAc(b1-2)[GlcNAc(b1-4)]Man(a1-3)[GlcNAc(b1-4)][GlcNAc(b1-2)Man(a1-6)]Man(b1-4)GlcNAc(b1-4)GlcNAc
# Outline: as §1
# [8] = target: GlcNAc(b1-2)[GlcNAc(b1-4)]Man(a1-3)[GlcNAc(b1-4)][GlcNAc(b1-2)[GlcNAc(b1-6)]Man(a1-6)]Man(b1-4)GlcNAc(b1-4)GlcNAc
# Outline: as §1
# [9] = target: GlcNAc(b1-2)[GlcNAc(b1-4)]Man(a1-3)[GlcNAc(b1-4)][GlcNAc(b1-2)[GlcNAc(b1-6)]Man(a1-6)]Man(b1-4)GlcNAc(b1-4)[Fuc(a1-6)]GlcNAc
# Outline: as §1
# [10] = target: GlcNAc(b1-2)[GlcNAc(b1-6)]Man(a1-6)[GlcNAc(b1-2)Man(a1-3)]Man(b1-4)GlcNAc(b1-4)GlcNAc
# Outline: as §1
# [11] = target: GlcNAc(b1-2)[GlcNAc(b1-6)]Man(a1-6)[GlcNAc(b1-2)Man(a1-3)]Man(b1-4)GlcNAc(b1-4)[Fuc(a1-6)]GlcNAc
# Outline: as §1
# [12] = target: GlcNAc(b1-2)[GlcNAc(b1-6)]Man(a1-6)[GlcNAc(b1-4)][GlcNAc(b1-2)Man(a1-3)]Man(b1-4)GlcNAc(b1-4)GlcNAc
# Outline: as §1
# GlcNAc(b1-3)Fuc = target: GlcNAc(b1-3)Fuc
# Outline: as §1
# GlcNAc(b1-3)Gal = target: GlcNAc(b1-3)Gal
# Outline: as §1
# [13] = target: GlcNAc(b1-3)Gal(b1-3)GalNAc
# Outline: as §1
# GlcNAc(b1-3)Gal(b1-4)Glc = target: GlcNAc(b1-3)Gal(b1-4)Glc
# Outline: as §1
# [14] = target: GlcNAc(b1-3)Gal(b1-4)GlcNAc
# Outline: as §1
# [15] = target: GlcNAc(b1-3)Gal(b1-4)GlcNAc(b1-2)Man(a1-3)[GlcNAc(b1-3)Gal(b1-4)GlcNAc(b1-2)Man(a1-6)]Man(b1-4)GlcNAc(b1-4)GlcNAc
# Outline: as §1
# [16] = target: GlcNAc(b1-3)Gal(b1-4)GlcNAc(b1-2)Man(a1-3)[GlcNAc(b1-3)Gal(b1-4)GlcNAc(b1-2)Man(a1-6)]Man(b1-4)GlcNAc(b1-4)[Fuc(a1-6)]GlcNAc
# Outline: as §1
# [17] = target: GlcNAc(b1-3)Gal(b1-4)GlcNAc(b1-2)[GlcNAc(b1-3)Gal(b1-4)GlcNAc(b1-6)]Man(a1-6)[GlcNAc(b1-3)Gal(b1-4)GlcNAc(b1-2)Man(a1-3)]Man(b1-4)GlcNAc(b1-4)GlcNAc
# Outline: as §1
# [18] = target: GlcNAc(b1-3)Gal(b1-4)GlcNAc(b1-3)Gal(b1-4)GlcNAc
# Outline: as §1
# [19] = target: GlcNAc(b1-3)Gal(b1-4)GlcNAc(b1-3)Gal(b1-4)GlcNAc(b1-2)Man(a1-3)[GlcNAc(b1-3)Gal(b1-4)GlcNAc(b1-3)Gal(b1-4)GlcNAc(b1-2)Man(a1-6)]Man(b1-4)GlcNAc(b1-4)GlcNAc
# Outline: as §1
# [20] = target: GlcNAc(b1-3)Gal(b1-4)GlcNAc(b1-3)Gal(b1-4)GlcNAc(b1-2)Man(a1-3)[GlcNAc(b1-3)Gal(b1-4)GlcNAc(b1-3)Gal(b1-4)GlcNAc(b1-2)Man(a1-6)]Man(b1-4)GlcNAc(b1-4)[Fuc(a1-6)]GlcNAc
# Outline: as §1
# [21] = target: GlcNAc(b1-3)Gal(b1-4)GlcNAc(b1-3)Gal(b1-4)GlcNAc(b1-2)[GlcNAc(b1-3)Gal(b1-4)GlcNAc(b1-3)Gal(b1-4)GlcNAc(b1-6)]Man(a1-6)[GlcNAc(b1-3)Gal(b1-4)GlcNAc(b1-3)Gal(b1-4)GlcNAc(b1-2)Man(a1-3)]Man(b1-4)GlcNAc(b1-4)[Fuc(a1-6)]GlcNAc
# Outline: as §1
# [22] = target: GlcNAc(b1-3)Gal(b1-4)GlcNAc(b1-3)Gal(b1-4)GlcNAc(b1-3)Gal(b1-4)GlcNAc(b1-2)Man(a1-3)[GlcNAc(b1-3)Gal(b1-4)GlcNAc(b1-3)Gal(b1-4)GlcNAc(b1-3)Gal(b1-4)GlcNAc(b1-2)Man(a1-6)]Man(b1-4)GlcNAc(b1-4)GlcNAc
# Outline: as §1
# [23] = target: GlcNAc(b1-3)Gal(b1-4)GlcNAc(b1-3)Gal(b1-4)GlcNAc(b1-3)Gal(b1-4)GlcNAc(b1-2)Man(a1-3)[GlcNAc(b1-3)Gal(b1-4)GlcNAc(b1-3)Gal(b1-4)GlcNAc(b1-3)Gal(b1-4)GlcNAc(b1-2)Man(a1-6)]Man(b1-4)GlcNAc(b1-4)[Fuc(a1-6)]GlcNAc
# Outline: as §1
# [24] = target: GlcNAc(b1-3)Gal(b1-4)GlcNAc(b1-3)Gal(b1-4)GlcNAc(b1-3)Gal(b1-4)GlcNAc(b1-2)[GlcNAc(b1-3)Gal(b1-4)GlcNAc(b1-3)Gal(b1-4)GlcNAc(b1-3)Gal(b1-4)GlcNAc(b1-6)]Man(a1-6)[GlcNAc(b1-3)Gal(b1-4)GlcNAc(b1-3)Gal(b1-4)GlcNAc(b1-3)Gal(b1-4)GlcNAc(b1-2)Man(a1-3)]Man(b1-4)GlcNAc(b1-4)[Fuc(a1-6)]GlcNAc
# Outline: as §1
# [25] = target: GlcNAc(b1-3)Gal(b1-4)GlcNAc(b1-3)Gal(b1-4)GlcNAc(b1-3)Gal(b1-4)GlcNAc(b1-3)Gal(b1-4)GlcNAc(b1-2)Man(a1-3)[GlcNAc(b1-3)Gal(b1-4)GlcNAc(b1-3)Gal(b1-4)GlcNAc(b1-3)Gal(b1-4)GlcNAc(b1-3)Gal(b1-4)GlcNAc(b1-2)Man(a1-6)]Man(b1-4)GlcNAc(b1-4)GlcNAc
# Outline: as §1
# [26] = target: GlcNAc(b1-3)Gal(b1-4)GlcNAc(b1-3)Gal(b1-4)GlcNAc(b1-3)Gal(b1-4)GlcNAc(b1-3)Gal(b1-4)GlcNAc(b1-2)Man(a1-3)[GlcNAc(b1-3)Gal(b1-4)GlcNAc(b1-3)Gal(b1-4)GlcNAc(b1-3)Gal(b1-4)GlcNAc(b1-3)Gal(b1-4)GlcNAc(b1-2)Man(a1-6)]Man(b1-4)GlcNAc(b1-4)[Fuc(a1-6)]GlcNAc
# Outline: as §1
# [27] = target: GlcNAc(b1-3)Gal(b1-4)GlcNAc(b1-3)Gal(b1-4)GlcNAc(b1-3)Gal(b1-4)GlcNAc(b1-3)Gal(b1-4)GlcNAc(b1-2)[GlcNAc(b1-3)Gal(b1-4)GlcNAc(b1-3)Gal(b1-4)GlcNAc(b1-3)Gal(b1-4)GlcNAc(b1-3)Gal(b1-4)GlcNAc(b1-6)]Man(a1-6)[GlcNAc(b1-3)Gal(b1-4)GlcNAc(b1-3)Gal(b1-4)GlcNAc(b1-3)Gal(b1-4)GlcNAc(b1-3)Gal(b1-4)GlcNAc(b1-2)Man(a1-3)]Man(b1-4)GlcNAc(b1-4)[Fuc(a1-6)]GlcNAc
# Outline: as §1
# [28] = target: GlcNAc(b1-3)Gal(b1-4)GlcNAc(b1-3)Gal(b1-4)GlcNAc(b1-3)GalNAc
# Outline: as §1
# [29] = target: GlcNAc(b1-3)Gal(b1-4)GlcNAc(b1-3)GalNAc
# Outline: as §1
# [30] = target: GlcNAc(b1-3)Gal(b1-4)GlcNAc(b1-3)[GlcNAc(b1-3)Gal(b1-4)GlcNAc(b1-3)]GalNAc
# Outline: as §1
# [31] = target: GlcNAc(b1-3)Gal(b1-4)GlcNAc(b1-6)[Gal(b1-3)]GalNAc
# Outline: as §1
# [32] = target: GlcNAc(b1-3)Gal(b1-4)GlcNAc(b1-6)[GlcNAc(b1-3)Gal(b1-3)]GalNAc
# Outline: as §1
# [33] = target: GlcNAc(b1-3)Gal(b1-4)GlcNAc(b1-6)[GlcNAc(b1-3)]Gal(b1-4)GlcNAc
# Outline: as §1
# GlcNAc(b1-3)GalNAc = target: GlcNAc(b1-3)GalNAc
# Outline: as §1
# GlcNAc(b1-3)Man = target: GlcNAc(b1-3)Man
# Outline: as §1
# [34] = target: GlcNAc(b1-3)[GlcNAc(b1-4)][GlcNAc(b1-6)]GlcNAc
# Outline: as §1
# [35] = target: GlcNAc(b1-3)[GlcNAc(b1-6)]Gal(b1-4)GlcNAc
# Outline: as §1
# [36] = target: GlcNAc(b1-3)[GlcNAc(b1-6)]GalNAc
# Outline: as §1
# [37] = target: GlcNAc(b1-4)Gal(b1-4)GlcNAc
# Outline: as §1
# GlcNAc(b1-4)GlcNAc = target: GlcNAc(b1-4)GlcNAc
# Outline: as §1
# [38] = target: GlcNAc(b1-4)GlcNAc(b1-4)GlcNAc
# Outline: as §1
# [39] = target: GlcNAc(b1-4)GlcNAc(b1-4)GlcNAc(b1-4)GlcNAc(b1-4)GlcNAc
# Outline: as §1
binder,measurement,setting,value
B1,glycan array binding signal (z-score),[1],-0.775
same,glycan array binding signal (z-score),[2],-0.838
same,glycan array binding signal (z-score),[3],-0.289
same,glycan array binding signal (z-score),[4],-0.723
same,glycan array binding signal (z-score),[5],-0.53
same,glycan array binding signal (z-score),[6],-0.935
same,glycan array binding signal (z-score),[7],-0.86
same,glycan array binding signal (z-score),[8],-0.674
same,glycan array binding signal (z-score),[9],-0.555
same,glycan array binding signal (z-score),[10],-0.742
same,glycan array binding signal (z-score),[11],-0.696
same,glycan array binding signal (z-score),[12],-0.878
same,glycan array binding signal (z-score),GlcNAc(b1-3)Fuc,-0.649
same,glycan array binding signal (z-score),GlcNAc(b1-3)Gal,-0.57
same,glycan array binding signal (z-score),[13],-0.027
same,glycan array binding signal (z-score),GlcNAc(b1-3)Gal(b1-4)Glc,-0.739
same,glycan array binding signal (z-score),[14],-0.66
same,glycan array binding signal (z-score),[15],-0.164
same,glycan array binding signal (z-score),[16],-0.647
same,glycan array binding signal (z-score),[17],0.215
same,glycan array binding signal (z-score),[18],-0.41
same,glycan array binding signal (z-score),[19],-0.619
same,glycan array binding signal (z-score),[20],-0.763
same,glycan array binding signal (z-score),[21],-0.256
same,glycan array binding signal (z-score),[22],0.049
same,glycan array binding signal (z-score),[23],-0.672
same,glycan array binding signal (z-score),[24],-0.614
same,glycan array binding signal (z-score),[25],1.14
same,glycan array binding signal (z-score),[26],-0.406
same,glycan array binding signal (z-score),[27],-0.085
same,glycan array binding signal (z-score),[28],-0.809
same,glycan array binding signal (z-score),[29],-0.749
same,glycan array binding signal (z-score),[30],-0.543
same,glycan array binding signal (z-score),[31],0.123
same,glycan array binding signal (z-score),[32],-0.582
same,glycan array binding signal (z-score),[33],-0.909
same,glycan array binding signal (z-score),GlcNAc(b1-3)GalNAc,-0.572
same,glycan array binding signal (z-score),GlcNAc(b1-3)Man,-0.866
same,glycan array binding signal (z-score),[34],0.98
same,glycan array binding signal (z-score),[35],-0.673
same,glycan array binding signal (z-score),[36],-0.327
same,glycan array binding signal (z-score),[37],-0.426
same,glycan array binding signal (z-score),GlcNAc(b1-4)GlcNAc,-0.752
same,glycan array binding signal (z-score),[38],0.109
same,glycan array binding signal (z-score),[39],-0.848
